Reference: patent US7208157B2 (California Institute of Technology, priority 2000, dated 2007)

Assay: peptide synthesis
Conditions: conjugation step

IB peptide-suberate-Gly-DHT
conjugation yield: 51%
